Data reported in paper PMC3816305.
No constants are given. Whether binding was seen depends on the method and setting. Binding seen in cells or lysates may run through a third protein. Some entries that bind do so weakly or less than the wild type.

Protein sequences, listed by entry. Tags and fused reporters are not part of them.
UniProt O15379: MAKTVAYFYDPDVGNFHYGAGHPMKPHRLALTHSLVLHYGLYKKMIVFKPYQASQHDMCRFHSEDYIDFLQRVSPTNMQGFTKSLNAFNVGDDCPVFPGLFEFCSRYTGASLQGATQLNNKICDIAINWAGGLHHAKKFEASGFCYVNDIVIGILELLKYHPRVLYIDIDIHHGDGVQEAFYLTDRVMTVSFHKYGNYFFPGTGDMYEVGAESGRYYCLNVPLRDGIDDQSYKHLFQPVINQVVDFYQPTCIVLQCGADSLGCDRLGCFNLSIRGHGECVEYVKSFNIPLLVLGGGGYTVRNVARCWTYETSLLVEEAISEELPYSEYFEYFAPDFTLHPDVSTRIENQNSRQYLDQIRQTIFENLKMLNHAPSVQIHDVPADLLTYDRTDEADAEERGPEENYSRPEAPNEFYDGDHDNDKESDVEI
UniProt O15265: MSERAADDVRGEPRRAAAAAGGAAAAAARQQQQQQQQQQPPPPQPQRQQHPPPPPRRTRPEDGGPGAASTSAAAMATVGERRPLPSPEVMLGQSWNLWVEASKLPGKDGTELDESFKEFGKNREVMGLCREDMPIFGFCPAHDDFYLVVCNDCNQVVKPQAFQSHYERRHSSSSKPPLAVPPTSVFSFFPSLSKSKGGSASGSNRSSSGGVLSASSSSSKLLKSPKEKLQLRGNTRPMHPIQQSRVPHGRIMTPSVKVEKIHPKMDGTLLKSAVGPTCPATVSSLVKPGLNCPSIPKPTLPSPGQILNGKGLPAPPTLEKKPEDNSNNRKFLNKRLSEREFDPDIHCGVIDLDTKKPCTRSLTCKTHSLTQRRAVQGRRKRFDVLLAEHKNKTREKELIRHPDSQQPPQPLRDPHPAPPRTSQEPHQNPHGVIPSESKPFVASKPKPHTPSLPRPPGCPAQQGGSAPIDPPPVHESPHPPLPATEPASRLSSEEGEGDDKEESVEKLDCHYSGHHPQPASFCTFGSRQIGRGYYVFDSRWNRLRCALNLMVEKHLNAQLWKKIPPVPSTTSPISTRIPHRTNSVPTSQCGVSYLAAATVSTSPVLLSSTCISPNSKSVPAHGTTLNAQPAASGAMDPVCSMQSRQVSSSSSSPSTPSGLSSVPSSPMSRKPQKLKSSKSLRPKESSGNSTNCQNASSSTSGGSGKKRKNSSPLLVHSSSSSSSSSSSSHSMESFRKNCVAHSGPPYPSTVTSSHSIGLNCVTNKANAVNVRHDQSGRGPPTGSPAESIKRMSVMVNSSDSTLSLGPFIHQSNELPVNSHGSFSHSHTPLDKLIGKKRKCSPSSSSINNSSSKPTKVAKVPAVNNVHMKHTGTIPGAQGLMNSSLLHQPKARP

Columns and labels:
Histone deacetylase-3 = Histone deacetylase-3 (UniProt O15379); assay: co-IP; reverse: HEK293T whole cell lysates (500 ug, MPER); immunoprecipitation with anti-HDAC3 (B-12, sc-17795) on Protein G Sepharose, overnight at 4°C; blot with anti-ataxin-7 (K)
ataxin-7-10Q (wild type) = ataxin-7-10Q (wild type) (UniProt O15265); assay: co-IP; HEK293T whole cell lysates (500 ug, MPER) of cells expressing HDAC3 and ataxin-7-10Q or ataxin-7-92Q; immunoprecipitation with anti-ataxin-7 (PA1-749) on Protein G Sepharose, overnight at 4°C; blot with anti-HDAC3 (N-19)

Row | Substance | binding (Histone deacetylase-3) | binding (ataxin-7-10Q (wild type))
1 | ataxin-7-10Q (wild type) (from UniProt O15265 1-892) | binds | 
2 | Histone deacetylase-3 (from UniProt O15379 1-428) (enzyme) |  | binds
